Results are given in words; binding and its absence hold for the method and conditions named. In cells and extracts the contact can be indirect. Some entries that bind do so weakly or less than the wild type. Sequences can lack the tags named with a protein.

By UniProt entry, the sequences of proteins in these tests, tags left out. Residues count along the entry.
UniProt O75051, residues 35-1894: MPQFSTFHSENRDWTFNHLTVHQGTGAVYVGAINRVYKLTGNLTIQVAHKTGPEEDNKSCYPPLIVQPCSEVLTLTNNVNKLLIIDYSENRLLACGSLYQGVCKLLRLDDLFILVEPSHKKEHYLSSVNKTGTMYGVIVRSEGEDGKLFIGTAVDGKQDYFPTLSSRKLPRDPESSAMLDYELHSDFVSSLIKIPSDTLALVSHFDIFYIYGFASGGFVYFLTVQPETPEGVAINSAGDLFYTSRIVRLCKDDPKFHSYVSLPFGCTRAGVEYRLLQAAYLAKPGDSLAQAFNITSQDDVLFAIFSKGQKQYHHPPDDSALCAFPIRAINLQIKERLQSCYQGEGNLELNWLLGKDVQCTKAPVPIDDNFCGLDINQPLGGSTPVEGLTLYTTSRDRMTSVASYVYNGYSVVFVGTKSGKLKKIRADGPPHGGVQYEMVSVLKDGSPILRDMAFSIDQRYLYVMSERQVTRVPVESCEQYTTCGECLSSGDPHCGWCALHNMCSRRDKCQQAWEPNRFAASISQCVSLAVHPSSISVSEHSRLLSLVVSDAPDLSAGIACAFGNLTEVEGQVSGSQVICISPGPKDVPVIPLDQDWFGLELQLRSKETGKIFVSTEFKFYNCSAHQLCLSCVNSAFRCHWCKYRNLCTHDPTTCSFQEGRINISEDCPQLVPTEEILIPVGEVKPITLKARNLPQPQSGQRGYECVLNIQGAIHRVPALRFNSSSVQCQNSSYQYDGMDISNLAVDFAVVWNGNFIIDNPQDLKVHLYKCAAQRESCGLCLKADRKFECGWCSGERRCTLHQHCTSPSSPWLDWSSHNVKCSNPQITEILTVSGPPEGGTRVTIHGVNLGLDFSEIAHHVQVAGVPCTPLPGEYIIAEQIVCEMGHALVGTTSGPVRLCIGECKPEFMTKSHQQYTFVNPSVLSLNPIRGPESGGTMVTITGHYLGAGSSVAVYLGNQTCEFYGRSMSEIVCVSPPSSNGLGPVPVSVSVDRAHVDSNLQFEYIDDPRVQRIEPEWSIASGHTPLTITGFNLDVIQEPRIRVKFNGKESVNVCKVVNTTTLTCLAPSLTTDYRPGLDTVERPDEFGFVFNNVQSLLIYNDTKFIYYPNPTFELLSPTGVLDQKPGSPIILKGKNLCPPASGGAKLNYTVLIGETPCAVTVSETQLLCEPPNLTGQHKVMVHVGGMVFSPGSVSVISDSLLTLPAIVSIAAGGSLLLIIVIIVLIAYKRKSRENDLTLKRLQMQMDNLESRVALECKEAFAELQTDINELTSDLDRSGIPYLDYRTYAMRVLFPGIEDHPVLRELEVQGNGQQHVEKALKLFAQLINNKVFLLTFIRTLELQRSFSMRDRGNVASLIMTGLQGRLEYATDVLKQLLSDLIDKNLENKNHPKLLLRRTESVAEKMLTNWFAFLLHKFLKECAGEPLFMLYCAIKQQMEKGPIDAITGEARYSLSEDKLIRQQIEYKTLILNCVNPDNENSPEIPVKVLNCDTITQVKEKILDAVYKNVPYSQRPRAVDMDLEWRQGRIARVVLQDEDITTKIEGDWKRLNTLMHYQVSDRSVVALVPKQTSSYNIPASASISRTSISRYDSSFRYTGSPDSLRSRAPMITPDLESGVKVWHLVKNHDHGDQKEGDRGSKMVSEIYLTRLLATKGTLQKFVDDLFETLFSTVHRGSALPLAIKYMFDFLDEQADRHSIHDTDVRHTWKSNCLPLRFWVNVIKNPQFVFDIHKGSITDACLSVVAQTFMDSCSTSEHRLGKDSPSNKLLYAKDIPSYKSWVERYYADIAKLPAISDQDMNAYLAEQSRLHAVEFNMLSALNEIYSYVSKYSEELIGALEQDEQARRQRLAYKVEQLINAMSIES

The target in this assay is T1, EGFP-tagged human SEMA6B, wild type (pEGFP-C1-human SEMA6B) (human) (UniProt Q9H3T3).
T1 sequence: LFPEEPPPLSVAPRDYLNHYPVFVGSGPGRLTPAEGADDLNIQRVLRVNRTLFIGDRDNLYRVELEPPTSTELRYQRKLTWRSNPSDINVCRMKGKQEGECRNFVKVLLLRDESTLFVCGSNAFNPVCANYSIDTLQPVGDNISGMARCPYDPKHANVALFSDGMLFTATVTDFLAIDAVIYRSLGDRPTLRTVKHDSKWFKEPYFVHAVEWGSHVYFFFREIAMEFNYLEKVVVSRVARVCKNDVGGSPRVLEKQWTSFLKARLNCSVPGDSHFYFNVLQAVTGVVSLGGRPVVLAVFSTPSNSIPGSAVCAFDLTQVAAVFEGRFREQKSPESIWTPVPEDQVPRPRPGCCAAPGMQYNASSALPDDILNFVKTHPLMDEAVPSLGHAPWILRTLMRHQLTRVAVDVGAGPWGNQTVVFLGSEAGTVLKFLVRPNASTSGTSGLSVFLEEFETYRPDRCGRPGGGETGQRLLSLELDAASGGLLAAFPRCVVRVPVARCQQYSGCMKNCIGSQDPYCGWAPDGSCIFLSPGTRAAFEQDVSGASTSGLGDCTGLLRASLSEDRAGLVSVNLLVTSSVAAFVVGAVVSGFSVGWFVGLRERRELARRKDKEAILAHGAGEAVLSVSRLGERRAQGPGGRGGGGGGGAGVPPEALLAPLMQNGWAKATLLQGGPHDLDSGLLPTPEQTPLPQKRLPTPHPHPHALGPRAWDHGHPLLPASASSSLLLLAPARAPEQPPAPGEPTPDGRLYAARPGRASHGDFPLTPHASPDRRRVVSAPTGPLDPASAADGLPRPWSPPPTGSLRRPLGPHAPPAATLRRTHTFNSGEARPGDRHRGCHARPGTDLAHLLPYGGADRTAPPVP
Put plainly: co-IP; HEK-293T cells co-transfected with Myc-tagged PlxnA2 and EGFP-tagged SEMA6B; lysed after 48 h in NP-40 buffer (50 mM Tris pH 7.4, 150 mM NaCl, 1% NP-40); IP with anti-GFP antibody overnight at 4°C, protein A/G agarose beads, five washes with RIPA buffer; blot with anti-Myc; densitometry normalised to GFP, N = 3.

Take “Myc-DDK-tagged human plexin A2 (from UniProt O75051 35-1894) (receptor)”: the binding entry is “binds”.

Source of the values: publication PMC8129541.
